# In the supplement of paper PMC8728848:
# The list shows a part of the results.
# Columns and labels:
# Test in all cases: glycan array binding signal (z-score within array); higher = stronger binding
# Conditions in all cases: glycan notation: IUPAC condensed, linker removed
# [1] = biological target: Neu5Ac(a2-6)Gal(b1-4)GlcNAc(b1-2)Man(a1-3)[Gal(b1-4)GlcNAc(b1-2)Man(a1-6)]Man(b1-4)GlcNAc(b1-4)GlcNAc
# Summary of the method: (§1)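 Glycan array binding is given as a within-array Z-score, which can be read as non-binding when negative. The arrays, 3228 of them, came from the Consortium for Functional Glycomics database and were retained only where the protein sequence was available. Z-scores were averaged across arrays of the same protein sequence at different concentrations or buffers and across linkers.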
# [2] = biological target: Neu5Ac(a2-6)Gal(b1-4)GlcNAc(b1-2)Man(a1-3)[GlcNAc(b1-2)Man(a1-6)]Man(b1-4)GlcNAc(b1-4)GlcNAc
# Summary of the method: as §1
# [3] = biological target: Neu5Ac(a2-6)Gal(b1-4)GlcNAc(b1-2)Man(a1-3)[GlcNAc(b1-2)Man(b1-4)GlcNAc(b1-2)Man(a1-6)]Man(b1-4)GlcNAc(b1-4)GlcNAc
# Summary of the method: as §1
# [4] = biological target: Neu5Ac(a2-6)Gal(b1-4)GlcNAc(b1-2)Man(a1-3)[Neu5Ac(a2-6)Gal(b1-4)GlcNAc(b1-2)Man(a1-6)]Man(b1-4)GlcNAc(b1-4)GlcNAc
# Summary of the method: as §1
# [5] = biological target: Neu5Ac(a2-6)Gal(b1-4)GlcNAc(b1-2)Man(a1-6)[Gal(b1-4)GlcNAc(b1-2)Man(a1-3)]Man(b1-4)GlcNAc(b1-4)GlcNAc
# Summary of the method: as §1
# [6] = biological target: Neu5Ac(a2-6)Gal(b1-4)GlcNAc(b1-2)Man(a1-6)[GlcNAc(b1-2)Man(a1-3)]Man(b1-4)GlcNAc(b1-4)GlcNAc
# Summary of the method: as §1
# [7] = biological target: Neu5Ac(a2-6)Gal(b1-4)GlcNAc(b1-3)Gal(b1-4)GlcNAc
# Summary of the method: as §1
# [8] = biological target: Neu5Ac(a2-6)Gal(b1-4)GlcNAc(b1-3)Gal(b1-4)[Fuc(a1-3)]GlcNAc(b1-3)Gal(b1-4)[Fuc(a1-3)]GlcNAc
# Summary of the method: as §1
# [9] = biological target: Neu5Ac(a2-6)Gal(b1-4)GlcNAc6S
# Summary of the method: as §1
# [10] = biological target: Neu5Ac(a2-6)GalNAc
# Summary of the method: as §1
# [11] = biological target: Neu5Ac(a2-6)GalNAc(b1-4)GlcNAc
# Summary of the method: as §1
# [12] = biological target: Neu5Ac(a2-8)Neu5Ac
# Summary of the method: as §1
# [13] = biological target: Neu5Ac(a2-8)Neu5Ac(a2-3)Gal(b1-4)Glc
# Summary of the method: as §1
# [14] = biological target: Neu5Ac(a2-8)Neu5Ac(a2-3)[GalNAc(b1-4)]Gal(b1-4)Glc
# Summary of the method: as §1
# [15] = biological target: Neu5Ac(a2-8)Neu5Ac(a2-8)Neu5Ac
# Summary of the method: as §1
# [16] = biological target: Neu5Ac(a2-8)Neu5Ac(a2-8)Neu5Ac(a2-3)Gal(b1-4)Glc
# Summary of the method: as §1
# [17] = biological target: Neu5Ac(a2-8)Neu5Ac(a2-8)Neu5Ac(a2-3)[GalNAc(b1-4)]Gal(b1-4)Glc
# Summary of the method: as §1
# [18] = biological target: Neu5Ac(a2-8)Neu5Ac(a2-8)Neu5Ac(a2-8)Neu5Ac(a2-3)[GalNAc(b1-4)]Gal(b1-4)Glc
# Summary of the method: as §1
# [19] = biological target: Neu5Ac(b2-6)Gal(b1-4)GlcNAc
# Summary of the method: as §1
# [20] = biological target: Neu5Ac(b2-6)GalNAc
# Summary of the method: as §1
# [21] = biological target: Neu5Ac9Ac(a2-6)Gal(b1-4)GlcNAc
# Summary of the method: as §1
# [22] = biological target: Neu5Gc(a2-3)Gal(b1-3)GlcNAc
# Summary of the method: as §1
# [23] = biological target: Neu5Gc(a2-3)Gal(b1-3)[Fuc(a1-4)]GlcNAc
# Summary of the method: as §1
# [24] = biological target: Neu5Gc(a2-3)Gal(b1-4)Glc
# Summary of the method: as §1
# [25] = biological target: Neu5Gc(a2-3)Gal(b1-4)GlcNAc
# Summary of the method: as §1
# [26] = biological target: Neu5Gc(a2-3)Gal(b1-4)[Fuc(a1-3)]GlcNAc
# Summary of the method: as §1
# [27] = biological target: Neu5Gc(a2-6)Gal(b1-4)GlcNAc
# Summary of the method: as §1
# [28] = biological target: Neu5Gc(a2-6)GalNAc
# Summary of the method: as §1
# [29] = biological target: Neu5Gc(b2-6)Gal(b1-4)GlcNAc
# Summary of the method: as §1
binder,measurement,setting,value
"SLLPI (Mus musculus), Q9D9X8 (protein) MGICMSMYTQVLVPVDADGDHHILWSRFYERWGSCFNPCAGLVNCLPPHSSALYLCHRMEARSRAPRRQLCPPGITWLALAYLLSCLLASSKAKVFSRCELAKEMHDFGLDGYRGYNLADWVCLAYYTSGFNTNAVDHEADGSTNNGIFQISSRRWCRTLASNGPNLCRIYCTDLLNNDLKDSIVCAMKIVQEPLGLGYWEAWRHHCQGRDLSDWVDGCDF",glycan array binding signal (z-score),[1],0.555
same,glycan array binding signal (z-score),[2],-1.17
same,glycan array binding signal (z-score),[3],-0.507
same,glycan array binding signal (z-score),[4],-0.478
same,glycan array binding signal (z-score),[5],0.212
same,glycan array binding signal (z-score),[6],0.412
same,glycan array binding signal (z-score),[7],0.144
same,glycan array binding signal (z-score),[8],-0.647
same,glycan array binding signal (z-score),[9],3.29
same,glycan array binding signal (z-score),[10],1.13
same,glycan array binding signal (z-score),[11],-0.104
same,glycan array binding signal (z-score),[12],-0.158
same,glycan array binding signal (z-score),[13],0.408
same,glycan array binding signal (z-score),[14],-0.056
same,glycan array binding signal (z-score),[15],-0.377
same,glycan array binding signal (z-score),[16],-0.787
same,glycan array binding signal (z-score),[17],-1.07
same,glycan array binding signal (z-score),[18],1.09
same,glycan array binding signal (z-score),[19],0.126
same,glycan array binding signal (z-score),[20],0.056
same,glycan array binding signal (z-score),[21],-0.444
same,glycan array binding signal (z-score),[22],0.822
same,glycan array binding signal (z-score),[23],0.864
same,glycan array binding signal (z-score),[24],0.718
same,glycan array binding signal (z-score),[25],-0.143
same,glycan array binding signal (z-score),[26],0.59
same,glycan array binding signal (z-score),[27],-0.577
same,glycan array binding signal (z-score),[28],0.51
same,glycan array binding signal (z-score),[29],-0.026

# Pulled one by one from the list above:
binder,measurement,setting,value
"SLLPI (Mus musculus), Q9D9X8 (protein) MGICMSMYTQVLVPVDADGDHHILWSRFYERWGSCFNPCAGLVNCLPPHSSALYLCHRMEARSRAPRRQLCPPGITWLALAYLLSCLLASSKAKVFSRCELAKEMHDFGLDGYRGYNLADWVCLAYYTSGFNTNAVDHEADGSTNNGIFQISSRRWCRTLASNGPNLCRIYCTDLLNNDLKDSIVCAMKIVQEPLGLGYWEAWRHHCQGRDLSDWVDGCDF",glycan array binding signal (z-score),[3],-0.507
same,glycan array binding signal (z-score),[22],0.822
